# The source gives many values for each of these; only a part stands here.
# System: individuals who have previously had an MI
# Assay: CARE trial: effect of pravastatin vs placebo on coronary events (endpt1, rmi) by SNP genotype subgroup
# Assay type: in vivo, human
# Description: In Tables 21-22, the column labeled “Endpoint” indicates whether the endpoint that was analyzed was the primary endpoint of the CARE study (a composite endpoint of fatal coronary event or nonfatal MI, and identified as “endpt1”) or a composite endpoint of confirmed fatal or nonfatal MI (identified as “rmi”). […] As used herein, the term “benefit” (with respect to a preventive or therapeutic drug treatment) is defined as achieving a reduced risk for a disease that the drug is intended to treat or prevent (e.g., CVD such as CHD, particularly MI, or hypertension) by administering the drug treatment, compared with the risk for the disease in the absence of receiving the drug treatment (or receiving a placebo in lieu of the drug treatment) for the same genotype. […] J. […] (1996) New England Journal of Medicine 335: 1001-1009. […] A well-documented MI was one of the enrollment criteria for entry into the CARE study. Patients were enrolled in the CARE trial from 80 participating study centers. […] For the study of CARE described in this Example and shown in Tables 21-22, two endpoints were investigated: the primary endpoint of CARE (a composite endpoint of fatal coronary event or nonfatal MI, and identified as “endpt1” in the Endpoint column of Tables 21-22) and a composite endpoint of confirmed fatal or nonfatal MI (identified as “rmi” in the Endpoint column of Tables 21-22). […] HR stands for Hazard Ratio, which is a concept similar to Odds Ratio (OR). The HR in event-free survival analysis is the effect of an explanatory variable on the hazard or risk of an event. […] In Table 21, p-interaction values were calculated. An interaction (or effect modification) is formed when a third variable modifies the relation between an exposure and outcome. […] Genotype and drug interaction is present when the effect of statins (incidence rate of disease in statin-treated group, as compared to placebo) differs in patients with different genotypes.
# [1] = endpt1, hCV5478 rs1800574 TCF1, CC
# [2] = endpt1, hCV5478 rs1800574 TCF1, TC + TT
# [3] = endpt1, hCV529706 rs428785 ADAMTS1, CG + CC
# [4] = endpt1, hCV529706 rs428785 ADAMTS1, GG
# [5] = endpt1, hCV529710 rs402007 ADAMTS1, CG + CC
# [6] = endpt1, hCV529710 rs402007 ADAMTS1, GG
# [7] = endpt1, hCV549926 rs1057141 Tap1or, CT + CC
# [8] = endpt1, hCV549926 rs1057141 Tap1or, TT
# [9] = endpt1, hCV594695 rs45551939 SERPINA1, AT + AA
# [10] = endpt1, hCV594695 rs45551939 SERPINA1, TT
# [11] = endpt1, hCV598677 rs5370 EDN1, GG
# [12] = endpt1, hCV598677 rs5370 EDN1, TG + TT
# [13] = endpt1, hCV783138 rs6046 F10, AG + AA
# [14] = endpt1, hCV783138 rs6046 F10, GG
# [15] = endpt1, hCV783184 rs510335, TG + TT
# [16] = endpt1, hCV795441 rs401502 IL12RB1, CC
# [17] = endpt1, hCV795441 rs401502 IL12RB1, GC + GG
# [18] = endpt1, hCV2633049 rs2302006 CCL24, GT + GG
# [19] = endpt1, hCV2633049 rs2302006 CCL24, TT
# [20] = endpt1, hCV2658421 rs3176975 APOH, AC + AA
# [21] = endpt1, hCV2658421 rs3176975 APOH, CC
# [22] = endpt1, hCV2741051 rs2230806 ABCA1, CC
# [23] = endpt1, hCV2741051 rs2230806 ABCA1, TC + TT
# [24] = endpt1, hCV2741083 rs4149313 ABCA1, CT + CC
# [25] = endpt1, hCV2741083 rs4149313 ABCA1, TT
# [26] = endpt1, hCV2932115 rs5517 KLK1, CT + CC
# [27] = endpt1, hCV2932115 rs5517 KLK1, TT
# [28] = endpt1, hCV2983035 rs9527026 KL, AG + AA
# [29] = endpt1, hCV2983035 rs9527026 KL, GG
# [30] = endpt1, hCV3026189 rs11739136 KCNIP1, CC
# [31] = endpt1, hCV3026189 rs11739136 KCNIP1, TC + TT
# [32] = endpt1, hCV3068176 rs1801394 MTRR, AG + AA
# [33] = endpt1, hCV3068176 rs1801394 MTRR, GG
# [34] = endpt1, hCV3111721 rs33950747 NPHS1, CC
# [35] = endpt1, hCV3111721 rs33950747 NPHS1, TC + TT
# [36] = endpt1, hCV7441704 rs1800205 PPT1, AA
# [37] = endpt1, hCV7441704 rs1800205 PPT1, GA + GG
# [38] = endpt1, hCV7443062 rs897453 PEMT, CC
# [39] = endpt1, hCV7443062 rs897453 PEMT, TC + TT
# [40] = endpt1, hCV7475492 rs1138469 HSPG2, CC
# [41] = endpt1, hCV7475492 rs1138469 HSPG2, TC + TT
# [42] = endpt1, hCV7490135 rs1805082 NPC1, CT + CC
# [43] = endpt1, hCV7490135 rs1805082 NPC1, TT
# [44] = endpt1, hCV7494810 rs1058587 GDF15, CC
# [45] = endpt1, hCV7494810 rs1058587 GDF15, GC + GG
# [46] = endpt1, hCV7499212 rs1800127 LRP1, CC
# [47] = endpt1, hCV7499212 rs1800127 LRP1, TC + TT
# [48] = endpt1, hCV7514879 rs1800629, AG + AA
# [49] = endpt1, hCV7514879 rs1800629, GG
# [50] = endpt1, hCV7577801 rs11876 SLC9A3R2, CC
# [51] = endpt1, hCV7577801 rs11876 SLC9A3R2, TC + TT
structure (smiles),measurement,setting,value
CC[C@H](C)C(=O)O[C@H]1C[C@H](O)C=C2C=C[C@H](C)[C@H](CC[C@@H](O)C[C@@H](O)CC(=O)O)[C@H]21 [pravastatin],EVENTS (Pravastatin arm),[1],122
same,NONEVENT (Pravastatin arm),[1],1217
same,EVENTS (Pravastatin arm),[2],11
same,NONEVENT (Pravastatin arm),[2],75
same,EVENTS (Pravastatin arm),[3],55
same,NONEVENT (Pravastatin arm),[3],569
same,EVENTS (Pravastatin arm),[4],77
same,NONEVENT (Pravastatin arm),[4],719
same,EVENTS (Pravastatin arm),[5],57
same,NONEVENT (Pravastatin arm),[5],570
same,EVENTS (Pravastatin arm),[6],76
same,NONEVENT (Pravastatin arm),[6],720
same,EVENTS (Pravastatin arm),[7],33
same,NONEVENT (Pravastatin arm),[7],395
same,EVENTS (Pravastatin arm),[8],99
same,NONEVENT (Pravastatin arm),[8],894
same,EVENTS (Pravastatin arm),[9],19
same,NONEVENT (Pravastatin arm),[9],115
same,EVENTS (Pravastatin arm),[10],112
same,NONEVENT (Pravastatin arm),[10],1169
same,EVENTS (Pravastatin arm),[11],89
same,NONEVENT (Pravastatin arm),[11],774
same,EVENTS (Pravastatin arm),[12],44
same,NONEVENT (Pravastatin arm),[12],518
same,EVENTS (Pravastatin arm),[13],31
same,NONEVENT (Pravastatin arm),[13],258
same,EVENTS (Pravastatin arm),[14],101
same,NONEVENT (Pravastatin arm),[14],1033
same,EVENTS (Pravastatin arm),"endpt1, hCV783184 rs510335, GG",100
same,NONEVENT (Pravastatin arm),"endpt1, hCV783184 rs510335, GG",1008
same,EVENTS (Pravastatin arm),[15],32
same,NONEVENT (Pravastatin arm),[15],282
same,EVENTS (Pravastatin arm),[16],52
same,NONEVENT (Pravastatin arm),[16],596
same,EVENTS (Pravastatin arm),[17],81
same,NONEVENT (Pravastatin arm),[17],690
same,EVENTS (Pravastatin arm),[18],48
same,NONEVENT (Pravastatin arm),[18],440
same,EVENTS (Pravastatin arm),[19],85
same,NONEVENT (Pravastatin arm),[19],849
same,EVENTS (Pravastatin arm),[20],48
same,NONEVENT (Pravastatin arm),[20],522
same,EVENTS (Pravastatin arm),[21],84
same,NONEVENT (Pravastatin arm),[21],769
same,EVENTS (Pravastatin arm),[22],67
same,NONEVENT (Pravastatin arm),[22],647
same,EVENTS (Pravastatin arm),[23],66
same,NONEVENT (Pravastatin arm),[23],645
same,EVENTS (Pravastatin arm),[24],36
same,NONEVENT (Pravastatin arm),[24],316
same,EVENTS (Pravastatin arm),[25],97
same,NONEVENT (Pravastatin arm),[25],976
same,EVENTS (Pravastatin arm),[26],75
same,NONEVENT (Pravastatin arm),[26],591
same,EVENTS (Pravastatin arm),[27],58
same,NONEVENT (Pravastatin arm),[27],701
same,EVENTS (Pravastatin arm),[28],36
same,NONEVENT (Pravastatin arm),[28],387
same,EVENTS (Pravastatin arm),[29],97
same,NONEVENT (Pravastatin arm),[29],903
same,EVENTS (Pravastatin arm),[30],104
same,NONEVENT (Pravastatin arm),[30],1050
same,EVENTS (Pravastatin arm),[31],29
same,NONEVENT (Pravastatin arm),[31],241
same,EVENTS (Pravastatin arm),[32],100
same,NONEVENT (Pravastatin arm),[32],908
same,EVENTS (Pravastatin arm),[33],33
same,NONEVENT (Pravastatin arm),[33],384
same,EVENTS (Pravastatin arm),[34],121
same,NONEVENT (Pravastatin arm),[34],1098
same,EVENTS (Pravastatin arm),[35],11
same,NONEVENT (Pravastatin arm),[35],191
same,EVENTS (Pravastatin arm),[36],125
same,NONEVENT (Pravastatin arm),[36],1169
same,EVENTS (Pravastatin arm),[37],7
same,NONEVENT (Pravastatin arm),[37],118
same,EVENTS (Pravastatin arm),[38],31
same,NONEVENT (Pravastatin arm),[38],395
same,EVENTS (Pravastatin arm),[39],102
same,NONEVENT (Pravastatin arm),[39],897
same,EVENTS (Pravastatin arm),[40],109
same,NONEVENT (Pravastatin arm),[40],1132
same,EVENTS (Pravastatin arm),[41],23
same,NONEVENT (Pravastatin arm),[41],156
same,EVENTS (Pravastatin arm),[42],85
same,NONEVENT (Pravastatin arm),[42],924
same,EVENTS (Pravastatin arm),[43],48
same,NONEVENT (Pravastatin arm),[43],363
same,EVENTS (Pravastatin arm),[44],86
same,NONEVENT (Pravastatin arm),[44],730
same,EVENTS (Pravastatin arm),[45],46
same,NONEVENT (Pravastatin arm),[45],559
same,EVENTS (Pravastatin arm),[46],128
same,NONEVENT (Pravastatin arm),[46],1229
same,EVENTS (Pravastatin arm),[47],5
same,NONEVENT (Pravastatin arm),[47],63
same,EVENTS (Pravastatin arm),[48],33
same,NONEVENT (Pravastatin arm),[48],403
same,EVENTS (Pravastatin arm),[49],100
same,NONEVENT (Pravastatin arm),[49],885
same,EVENTS (Pravastatin arm),[50],77
same,NONEVENT (Pravastatin arm),[50],798
same,EVENTS (Pravastatin arm),[51],56
same,NONEVENT (Pravastatin arm),[51],491
same,EVENTS (Pravastatin arm),"endpt1, hCV7618856 rs1143675 ITGA4, CT + CC",4

# From US8216786B2, “Genetic polymorphisms associated with cardiovascular diseases, methods of detection and uses thereof” (Celera Corporation, priority 2008, dated 2012)
